Data from paper PMC7819943, “Rice protein-binding microarrays: a tool to detect cis-acting elements near promoter regions in rice”.
The list shows a part of the results.

The sequences below were run against T1, OsSMF1 (Oryza sativa, UniProt Q6ZLB0 1-436) (assay: protein-binding microarray (RPBM); PBS, 2% BSA, 51.3 ng/ul salmon testes DNA, 50 uM zinc acetate, 200 nM TF, 25 C, 1 h; high values mean tight binding). Details: protein: recombinant; tags: N-terminal polyhistidine and DsRed monomer fusion (pET32a); chain copies: 2; label: CyDye5-dUTP incorporated in the synthesized complementary strand; 3' TTTTT single-stranded linker to array surface; dsDNA, one strand shown.
T1 sequence: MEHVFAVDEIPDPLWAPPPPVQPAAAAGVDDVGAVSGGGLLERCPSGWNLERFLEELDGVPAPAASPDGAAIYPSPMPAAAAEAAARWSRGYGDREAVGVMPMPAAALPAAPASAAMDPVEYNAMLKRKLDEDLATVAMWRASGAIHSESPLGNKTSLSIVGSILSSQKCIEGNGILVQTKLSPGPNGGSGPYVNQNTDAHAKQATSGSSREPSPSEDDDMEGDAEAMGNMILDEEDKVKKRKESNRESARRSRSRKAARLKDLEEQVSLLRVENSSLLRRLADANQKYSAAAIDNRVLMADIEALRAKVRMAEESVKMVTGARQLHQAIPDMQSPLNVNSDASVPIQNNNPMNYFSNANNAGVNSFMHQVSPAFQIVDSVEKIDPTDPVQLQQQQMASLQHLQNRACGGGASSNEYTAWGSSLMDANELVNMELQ
Method in brief: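 Transcription factors were made in E. coli BL21-CodonPlus as N-terminal fusions to a polyhistidine tag and DsRed, then purified on Ni–NTA. After primer extension with Cy5-dUTP and blocking with 2% BSA, a custom Agilent array was exposed for 1 h at 25 °C to 200 nM protein in PBS, 2% BSA, salmon testes DNA and 50 µM zinc acetate. Washed arrays were scanned on an Axon 4000B, and the binding signal is per-feature fluorescence intensity in arbitrary units.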
With “CCTGAAAATATTTGGTTCAATTATTGAACTCGAGGTACCTCGGAGTCACCTAGTGCAG” the binding signal was 19100 fluorescence intensity (a.u.).
With “TGCTCAGCTCGTCGGGACAAGGGGATCTCGTCCCGATAGGCGGAGTCACCTAGTGCAG” the binding signal was 3300 fluorescence intensity (a.u.).
In the case of “ATTAATGTGGGAATTTCTAGTTCCCACAGCGAACGTGATGCGGAGTCACCTAGTGCAG”, the binding signal is reported as 3550 fluorescence intensity (a.u.).
“ACCGGTAAGCCCAAAAGAAAGGATAGAGAGAGCGATGGGCCGGAGTCACCTAGTGCAG” was tested, and the binding signal was 3320 fluorescence intensity (a.u.).
For “AATTTTATCATAGAACTACAGATTTAAGGTAAAATATCGCCGGAGTCACCTAGTGCAG”, the binding signal was 3220 fluorescence intensity (a.u.).
With “CATGAAGCCAACAATGACATCATCCATCTCCATCAACTGACGGAGTCACCTAGTGCAG” the binding signal was 4830 fluorescence intensity (a.u.).
With “ATGGATTCTTGCAATCTTGATTGGTTTATAGTAGTACTTGCGGAGTCACCTAGTGCAG” the binding signal was 3980 fluorescence intensity (a.u.).
For “TAAGAAAACTACAGCTTTATTACTCAAACTTAATATTAACCGGAGTCACCTAGTGCAG”, the binding signal was 39800 fluorescence intensity (a.u.).
In the case of “TCCTTGACTTCTCGAGAAGGGATATCGTGGCGTTTTCACCCGGAGTCACCTAGTGCAG”, the binding signal is reported as 3560 fluorescence intensity (a.u.).
For “CTAAAATGGCAAAGTGACGGCGCGCTCTCCGTATTGGCATCGGAGTCACCTAGTGCAG”, the binding signal was 3210 fluorescence intensity (a.u.).
In the case of “GAGAGATAGTACAAGATGGGAGGGAGAGAGAGAGAGAGAGCGGAGTCACCTAGTGCAG”, the binding signal is reported as 4150 fluorescence intensity (a.u.).
With “AACAAAATACATGTGCATCAACCATTTTGTTGCATATCACCGGAGTCACCTAGTGCAG” the binding signal was 28600 fluorescence intensity (a.u.).
“GACGCCCTTCTCGAGGAACGCCGACACGGTGCGCGGCCCCCGGAGTCACCTAGTGCAG” was tested, and the binding signal was 3610 fluorescence intensity (a.u.).
In the case of “GGCTACAATTCCACGCTACAAATGTAAGTTGCAATACATTCGGAGTCACCTAGTGCAG”, the binding signal is reported as 3180 fluorescence intensity (a.u.).
For “GTTAATATTATCCTCGTTCATTTTCACACTCTTCTAAAAGCGGAGTCACCTAGTGCAG”, the binding signal was 4700 fluorescence intensity (a.u.).
For “CAGTTAATAGAATAGAAAGGTGATGTGGTCCCGCACCTGACGGAGTCACCTAGTGCAG”, the binding signal was 3570 fluorescence intensity (a.u.).
With “AGTAGATAGTTAGGGCGATAGCAATGCGTCACAAGTATTTCGGAGTCACCTAGTGCAG” the binding signal was 5040 fluorescence intensity (a.u.).
In the case of “GTATATACTTGATCTGGTACGAGTCATTATGGCCAGCTCACGGAGTCACCTAGTGCAG”, the binding signal is reported as 4350 fluorescence intensity (a.u.).
“GTGTCACCTTTGTGCTTTGTTGGCATCAGTAGTATGGATACGGAGTCACCTAGTGCAG” was tested, and the binding signal was 3760 fluorescence intensity (a.u.).
With “CCTACCTGAAAACTTCACTGCTCACTCCAGAATTCAGATACGGAGTCACCTAGTGCAG” the binding signal was 18400 fluorescence intensity (a.u.).
With “ATTGAAAAGTTTGGTTCAAATTAAAATTTTAGTAACAAAACGGAGTCACCTAGTGCAG” the binding signal was 24300 fluorescence intensity (a.u.).
For “TACCAGATGAACTCTTTCCAATAATGTGATTGCCGGTGTTCGGAGTCACCTAGTGCAG”, the binding signal was 21600 fluorescence intensity (a.u.).
With “GTCCCTATCACATCGGATGTTTGAACAAAACAGAATATACCGGAGTCACCTAGTGCAG” the binding signal was 45600 fluorescence intensity (a.u.).
For “AAATGGATGATAAGTATAATTACTTAGAGCAAGTTTAATACGGAGTCACCTAGTGCAG”, the binding signal was 65500 fluorescence intensity (a.u.).
“CCTCGGCTCCCATCCACTACCGTTTGCTACTCCGGCGCCGCGGAGTCACCTAGTGCAG” was tested, and the binding signal was 3230 fluorescence intensity (a.u.).
With “GGGGAATACGCTTCATCCATGGGTTTACGAACAGATAATACGGAGTCACCTAGTGCAG” the binding signal was 3960 fluorescence intensity (a.u.).
“ATTTAATAGTCCGGGAGGCATGCTTACGGACAAGGACGAACGGAGTCACCTAGTGCAG” was tested, and the binding signal was 47100 fluorescence intensity (a.u.).
In the case of “TTTAATGTTAGAGATACAGGTGGTGATGTGTAATTTTGTCCGGAGTCACCTAGTGCAG”, the binding signal is reported as 5960 fluorescence intensity (a.u.).
With “GTACTCCGACGACTCGCCGCCGTCGACGCGGGCCCCGGCCCGGAGTCACCTAGTGCAG” the binding signal was 3650 fluorescence intensity (a.u.).
“AAGCGAACTCCCACAGTAAATTTCATCTTAGCTAAATCATCGGAGTCACCTAGTGCAG” was tested, and the binding signal was 3580 fluorescence intensity (a.u.).
For “GTCATTGCTGATAGTTGTTTTATCCCTATCAGTTAGCGTCCGGAGTCACCTAGTGCAG”, the binding signal was 24500 fluorescence intensity (a.u.).
“TAAATCTATGTGTGTGGACGTAGCAGTTCATGTTCATGCTCGGAGTCACCTAGTGCAG” was tested, and the binding signal was 3520 fluorescence intensity (a.u.).
For “TTCCTCCATCTTGACGTGGGACCCACCTGGAGATTCATCTCGGAGTCACCTAGTGCAG”, the binding signal was 4710 fluorescence intensity (a.u.).
“CATAAGTGTTCATGCTTTCTCCATCATGCTGGAGCCTGTACGGAGTCACCTAGTGCAG” was tested, and the binding signal was 3880 fluorescence intensity (a.u.).
With “TATTTAACGGTTTCTTTTACCCGTAACGAAGCACGTGTATCGGAGTCACCTAGTGCAG” the binding signal was 4170 fluorescence intensity (a.u.).
With “ACACCGAGACCGCTGGCTTCTTCTGCTTCTGTGGCAGCGGCGGAGTCACCTAGTGCAG” the binding signal was 26700 fluorescence intensity (a.u.).
For “GCGGTGGAGAGATGAAGCCAGGAGGACGTCAGCGTCGGCGCGGAGTCACCTAGTGCAG”, the binding signal was 6400 fluorescence intensity (a.u.).
In the case of “TGGCTTTCTGCTACCCTTTTGTAAGTTGTAACTTTCTTGACGGAGTCACCTAGTGCAG”, the binding signal is reported as 17100 fluorescence intensity (a.u.).
With “GTAGTATACGCCAGACGTGAGCTCTCTTCCTTCCTCGTCTCGGAGTCACCTAGTGCAG” the binding signal was 14400 fluorescence intensity (a.u.).
“AAACGTAATCTAATAACAAAACAAATTACAGAACTGTAAACGGAGTCACCTAGTGCAG” was tested, and the binding signal was 11100 fluorescence intensity (a.u.).
In the case of “CGCCGCTGACGCCGTGCCGTACCTTCCTCTGCCGCTGCCACGGAGTCACCTAGTGCAG”, the binding signal is reported as 5060 fluorescence intensity (a.u.).
With “CTCCCACCTCGCGCCATCGGATTCCACCTTCCCAGGTCTCCGGAGTCACCTAGTGCAG” the binding signal was 13200 fluorescence intensity (a.u.).
With “ACCTTGTGTCTGCACCATCCGTTTCCGATCGACCAGATCCCGGAGTCACCTAGTGCAG” the binding signal was 3990 fluorescence intensity (a.u.).
For “CCAACACGTCACGCATCTGGGCTTTCCTTCCTCCTCCTCCCGGAGTCACCTAGTGCAG”, the binding signal was 14100 fluorescence intensity (a.u.).
With “CCACGACTTTTCTCGTCGTCACATCAGCGTCTCCTCTTCTCGGAGTCACCTAGTGCAG” the binding signal was 3770 fluorescence intensity (a.u.).
In the case of “TCACAGCAGCGCAACGTGTCATGCCGCCCGGTGGGCCCCGCGGAGTCACCTAGTGCAG”, the binding signal is reported as 4230 fluorescence intensity (a.u.).
“CCCTCGCTCCGCCGTCTCCCCTCGCCGCCGTTCCCCTTCCCGGAGTCACCTAGTGCAG” was tested, and the binding signal was 3230 fluorescence intensity (a.u.).
In the case of “AGCCTGCGCCGCGAACTCGGGGCCCTCCTCGAGCAGGTGGCGGAGTCACCTAGTGCAG”, the binding signal is reported as 3280 fluorescence intensity (a.u.).
In the case of “CTCTTTCATAGTCCATGAGGTCTGCAGCTAGCTGACCAGACGGAGTCACCTAGTGCAG”, the binding signal is reported as 4420 fluorescence intensity (a.u.).
For “TGCACTTTGCGTGGACTTAAACATGCGTCAACACGTGTGTCGGAGTCACCTAGTGCAG”, the binding signal was 6890 fluorescence intensity (a.u.).
In the case of “GTGGTGTTTGAAATCATGAGTCATCACTCATCAAGGCTGCCGGAGTCACCTAGTGCAG”, the binding signal is reported as 7430 fluorescence intensity (a.u.).
“AAGATGGACAACCCTCAATAGATTGGGCTATGGGCTTGTTCGGAGTCACCTAGTGCAG” was tested, and the binding signal was 33900 fluorescence intensity (a.u.).
With “TCAGTCTCGTGTATATCCTAGCACCGACGATCCCCATACTCGGAGTCACCTAGTGCAG” the binding signal was 34900 fluorescence intensity (a.u.).
With “GGGCAAGTGGGCTGACATAGGCATTTGCTCCTTCCCCTAACGGAGTCACCTAGTGCAG” the binding signal was 3820 fluorescence intensity (a.u.).
